Data: the supplement of paper PMC12067093, “Discovery and optimisation of a covalent ligand for TRIM25 and its application to targeted protein ubiquitination” (Chemical Science, 2025)
This is one part of the list.

Compound: Cc1cc(ccc1-c1ccccc1)C(=O)N1CCCN(CC1)C(=O)CCl [compound 10]
Assay: probe-labelled cysteine peptide fold change vs DMSO (competition) (log2 fold change); higher = less target engagement (more negative = stronger competition)
Settings: THP-1, incubation time: 4 h
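Also: competitive profiling in live THP-1 cells: cysteine peptides tagged with an iodoacetamide desthiobiotin (IA-DTB) probe, intensity after compound treatment relative to DMSO-treated cells.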

Target	probe-labelled cysteine peptide fold change (10 µM)	probe-labelled cysteine peptide fold change (50 µM)
EDC3_Q96F86_353_GAQGISCGR (UniProt Q96F86)	0.00539	-0.268
EEF1AKMT1_Q8WVE0_149_IAAHSFDIVIADPPYLSEECLR (UniProt Q8WVE0)	0.0999	-0.165
EEF1D_P29692_247_KLQIQCVVEDDKVGTDLLEEEITKFEEHVQSVDIAAFNK (UniProt P29692)	0.0535	-0.579
EFEMP1_Q12805_298_LNCEDIDECR (UniProt Q12805)	-0.427	-0.0208
EIF2B3_Q9NR50_206_FHTGLVDAHLYCLKK (UniProt Q9NR50)	-0.139	-0.897
EEF1A1_P68104_363+370_GNVAGDSKNDPPMEAAGFTAQVIILNHPGQISAGYAPVLDCHTAHIACK (UniProt P68104)	-0.193	-0.833
EEF1D_P29692_217_SSILLDVKPWDDETDMAQLEACVR (UniProt P29692)	0.162	0.208
EHMT1_Q9H9B1_575_APLLVLCEDHR (UniProt Q9H9B1)	-0.125	-0.239
EIF2A_Q9BY44_80_AVCLEFSPK (UniProt Q9BY44)	-0.0376	0.0922
EIF2AK2_P19525_369_CLFIQMEFCDK (UniProt P19525)	0.0225	0.0844
EIF2A_Q9BY44_377_LISKPVASDSTYFAWCPDGEHILTATCAPR (UniProt Q9BY44)	-0.077	-0.141
EGLN1_Q9GZT9_127_AKPPADPAAAASPCR (UniProt Q9GZT9)	-0.0565	-0.505
EIF2B3_Q9NR50_64_ALCAEFK (UniProt Q9NR50)	0.136	-0.126
EHMT2_Q96KQ7_1115_FINHLCDPNIIPVR (UniProt Q96KQ7)	0.1	0.215
EEF1A2_Q05639_411_SGDAAIVEMVPGKPMCVESFSQYPPLGR (UniProt Q05639)	-0.261	-0.239
EHMT1_Q9H9B1_58_QAGEAHMAADGETNGSCENSDASSHANAAK (UniProt Q9H9B1)	-0.0491	-0.171
EIF2S2_P20042_226_KTSFVNFTDICK (UniProt P20042)	0.0304	-0.239
EEF1G_P26641_194_WFLTCINQPQFR (UniProt P26641)	-0.153	0.0663
ECM1_Q16610_384_THHHLCCR (UniProt Q16610)	0.183	0.0137
EIF2B4_Q9UI10_437_AHNVPVLVCCETYK (UniProt Q9UI10)	0.0422	-0.0207
EIF3B_P55884_384_FSHQGVQLIDFSPCER (UniProt P55884)	0.0196	-0.284
EI24_O14681_24_DSIWGICTISK (UniProt O14681)	-0.0668	-0.274

Target	probe-labelled cysteine peptide fold change (10 µM)	probe-labelled cysteine peptide fold change (50 µM)
EIF2S3_P41091_101_LDDPSCPRPECYR (UniProt P41091)	-0.106	0.209
EIF2AK4_Q9P2K8_46_QDHELQALEAIYGADFQDLRPDACGPVK (UniProt Q9P2K8)	-0.361	0.173
EEF2_P13639_567_DLEEDHACIPIKK (UniProt P13639)	-0.0692	0.0362
EHMT2_Q96KQ7_842_CDLHAVNYHGDTPLHIAAR (UniProt Q96KQ7)	0.0988	0.147
EFTUD2_Q15029_144+148_TCFVDCLIEQTHPEIRK (UniProt Q15029)	-0.133	-0.385
EIF3A_Q14152_160_QCLDLLR (UniProt Q14152)	0.229	0.391
EDC4_Q6P2E9_299_GHSTCLSEGALSPDGTVLATASHDGYVK (UniProt Q6P2E9)	-0.0854	-0.477
EIF2S1_P05198_6_PGLSCR (UniProt P05198)	-0.121	-0.205
EEF1D_P29692_247_KLQIQCVVEDDKVGTDLLEEEITK (UniProt P29692)	-0.0151	-0.344
ECT2_Q9H8V3_796_HVANTICK (UniProt Q9H8V3)	0.0863	-0.0487
EDC3_Q96F86_311_RLEMTGVCASQMALTLLGGPNR (UniProt Q96F86)	0.172	0.142
ECPAS_Q5VYK3_1503_EECNLWTEVWQENVPGSFGGIR (UniProt Q5VYK3)	0.14	0.205
EHMT1_Q9H9B1_954_YDCVVLFLSR (UniProt Q9H9B1)	0.432	0.511
EIF2AK4_Q9P2K8_285_CIGSDEQLGK (UniProt Q9P2K8)	-0.0549	-0.0607
ECPAS_Q5VYK3_386_TLSLQFVHHICITCPEIK (UniProt Q5VYK3)	-0.00947	0.329
EFTUD2_Q15029_166_YDQDLCYTDILFTEQER (UniProt Q15029)	0.0874	-0.00969
EIF2S2_P20042_281+284_EYVTCHTCR (UniProt P20042)	-0.0391	-0.0656
EFTUD2_Q15029_780_EGPLCDELIR (UniProt Q15029)	-0.1	0.075
EIF2S1_P05198_70_IGRNECVVVIRVDK (UniProt P05198)	-0.134	-0.44
ECM1_Q16610_426_VTPNLMGHLCGNQR (UniProt Q16610)	-0.117	-0.0573
EHMT2_Q96KQ7_1098_DGEVYCIDAR (UniProt Q96KQ7)	0.225	0.000564
ECPAS_Q5VYK3_1257_TIAALLPCLLDK (UniProt Q5VYK3)	-0.0296	-0.187

Two neighbouring records out of the list so far, quoted:
Target	probe-labelled cysteine peptide fold change (10 µM)	probe-labelled cysteine peptide fold change (50 µM)
ECT2_Q9H8V3_796_HVANTICK (UniProt Q9H8V3)	0.0863	-0.0487
EDC3_Q96F86_311_RLEMTGVCASQMALTLLGGPNR (UniProt Q96F86)	0.172	0.142
